# Values quoted from earlier work as cited in patent publication US20200289431A1 (priority 2019, published 2020).
compound,measurement,setting,value
C=C(C)[C@@H]1CCC(C)=C[C@H]1c1c(O)cc(CCCCC)cc1O [Cannabidiol],bioavailability via inhalation,"inhalation, range",11 to 45%
same,oral bioavailability,oral,13 to 19%
